Experimental data as given in patent US7105664B2, “5-Halogen-6-phenyl-7-fluoroalkylamino-triazolopyrimidines as fungicides” (BASF Aktiengesellschaft, priority 2001, dated 2006).
Some entries share one result that the patent states for a list of compounds.

What was measured:
Assay type in all cases: in vivo
Cercospora beticola = experiment: Fungicidal control of leaf spot on beets; settings: 200 ppm, sugar beet seedlings cultivar ACH-31, sprayed before inoculation; untreated plants infected to 85%
Alternaria solani = experiment: Fungicidal control of early blight on tomatoes; settings: 200 ppm, tomato seedlings cultivar Pixie II, sprayed before inoculation; untreated plants infected to 90%
Venturia inequalis = experiment: Fungicidal control of apple scab on apple seedlings; settings: 200 ppm, apple seedlings cultivar Common, sprayed before inoculation; untreated plants infected to 80%

Compound	infection (% diseased leaf area) (Cercospora beticola)	infection (% diseased leaf area) (Alternaria solani)	infection (% diseased leaf area) (Venturia inequalis)
Fc1cc(F)c(-c2c(Cl)nc3ncnn3c2NCC(F)C(F)(F)F)c(F)c1 (stereo not drawn) [I-1]	up to 15%	up to 15%	up to 15%
FC(F)=C(F)CCNc1c(-c2c(F)cc(F)cc2F)c(Cl)nc2ncnn12 [I-2]	up to 15%	up to 15%	up to 15%
CC(CNc1c(-c2c(F)cc(F)cc2F)c(Cl)nc2ncnn12)CC(F)(F)F (stereo not drawn) [I-3]	up to 15%	up to 15%	up to 15%
Fc1c(F)c(F)c(-c2c(Cl)nc3ncnn3c2NC(F)CC(F)(F)F)c(F)c1F (stereo not drawn) [I-4]	up to 15%	up to 15%	up to 15%
Fc1cc(F)c(-c2c(Cl)nc3ncnn3c2NCCC(F)(F)F)c(F)c1 [I-5]	–	up to 15%	up to 15%
Fc1cccc(Cl)c1-c1c(Cl)nc2ncnn2c1NCC(F)(F)C(F)(F)F [I-6]	up to 15%	up to 15%	up to 15%
COc1cc(F)c(-c2c(Cl)nc3ncnn3c2NCCC(F)(F)F)c(F)c1 [I-7]	–	up to 15%	–
Fc1cccc(Cl)c1-c1c(Cl)nc2ncnn2c1NCC(F)(F)C(F)(F)C(F)(F)F [I-8]	up to 15%	–	up to 15%
Fc1cccc(Cl)c1-c1c(Cl)nc2ncnn2c1NCCCC(F)(F)F [I-9, 5-chloro-6-(2-chloro-6-fluorophenyl)-7-(1,1,1-trifluorobut-4-yl)-amino-[1,2,4]-triazolo(1,5-α]pyrimidine]	–	up to 15%	up to 15%
Fc1cc(F)c(-c2c(Cl)nc3ncnn3c2NCCCC(F)(F)F)c(F)c1 [I-10]	–	up to 15%	up to 15%
FC(F)=C(F)CCNc1c(-c2c(F)cccc2F)c(Cl)nc2ncnn12 [I-11]	up to 15%	up to 15%	up to 15%
FC(F)=C(F)CCNc1c(-c2ccccc2Cl)c(Cl)nc2ncnn12 [I-12]	up to 15%	up to 15%	up to 15%
FC(F)=C(F)CCNc1c(-c2ccccc2F)c(Cl)nc2ncnn12 [I-13]	up to 15%	up to 15%	up to 15%
FC(F)=C(F)CCNc1c(-c2c(F)cccc2Cl)c(Cl)nc2ncnn12 [I-14]	up to 15%	–	up to 15%
FC(F)=C(F)CCNc1c(-c2c(F)c(F)c(F)c(F)c2F)c(Cl)nc2ncnn12 [I-15]	up to 15%	up to 15%	up to 15%
O=[N+]([O-])c1ccc(F)cc1-c1c(Cl)nc2ncnn2c1NCC(F)C(F)(F)F (stereo not drawn) [I-16]	up to 15%	–	up to 15%
Fc1cccc(Cl)c1-c1c(Cl)nc2ncnn2c1NCC(F)C(F)(F)F (stereo not drawn) [I-17]	up to 15%	up to 15%	up to 15%
Fc1cccc(F)c1-c1c(Cl)nc2ncnn2c1NCC(F)C(F)(F)F (stereo not drawn) [I-18]	up to 15%	up to 15%	up to 15%
Fc1ccccc1-c1c(Cl)nc2ncnn2c1NCCCC(F)(F)F [I-19]	up to 15%	–	up to 15%
